Test results as given in paper PMC6092318, “Keap1–MCM3 interaction is a potential coordinator of molecular machineries of antioxidant response and genomic DNA replication in metazoa” (Scientific Reports, 2018).
These are yes or no findings as the source states them, for the method shown. In cells and extracts the contact can be indirect. These calls come from enrichment with a bait or labelling near it, and not all partners need be listed. Where a sequence is shown, tags or fusion partners need not be part of it.

Target: T1, FLAG-MCM3 (mouse MCM3 expressed in CHO-EBNALT85 cells) (mouse) (UniProt P25206)
T1 sequence: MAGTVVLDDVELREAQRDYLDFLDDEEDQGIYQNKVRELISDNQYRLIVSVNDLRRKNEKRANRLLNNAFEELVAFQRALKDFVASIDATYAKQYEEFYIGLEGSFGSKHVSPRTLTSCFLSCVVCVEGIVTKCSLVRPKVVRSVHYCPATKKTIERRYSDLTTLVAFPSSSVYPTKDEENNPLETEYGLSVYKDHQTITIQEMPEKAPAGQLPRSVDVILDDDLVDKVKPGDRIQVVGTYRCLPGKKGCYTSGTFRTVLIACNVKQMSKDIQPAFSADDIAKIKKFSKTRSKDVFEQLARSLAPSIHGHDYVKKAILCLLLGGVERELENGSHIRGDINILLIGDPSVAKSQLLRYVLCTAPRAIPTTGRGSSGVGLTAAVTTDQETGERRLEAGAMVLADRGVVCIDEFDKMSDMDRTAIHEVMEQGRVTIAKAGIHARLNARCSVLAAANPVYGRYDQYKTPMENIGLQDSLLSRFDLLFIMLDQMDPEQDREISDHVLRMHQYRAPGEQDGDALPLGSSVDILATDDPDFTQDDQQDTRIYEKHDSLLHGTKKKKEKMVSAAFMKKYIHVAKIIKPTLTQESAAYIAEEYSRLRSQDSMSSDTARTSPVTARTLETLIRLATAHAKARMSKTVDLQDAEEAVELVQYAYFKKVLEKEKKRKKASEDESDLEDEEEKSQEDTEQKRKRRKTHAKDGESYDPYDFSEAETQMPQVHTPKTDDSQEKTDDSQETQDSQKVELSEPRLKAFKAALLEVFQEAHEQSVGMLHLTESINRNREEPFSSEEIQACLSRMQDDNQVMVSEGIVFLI
Experiment: affinity purification with mass spectrometry; anti-FLAG M2 beads on extracts of FLAG-MCM3 expressing CHOEBNALT85 cells, 150 mM KCl, pH 7.8, 4 °C, FLAG peptide elution, Superdex 200 fractions analysed by nano-LC/MS/MS

Row | binding | Substance
1 | binds | Keap1 (endogenous, CHO cells) (Chinese hamster (endogenous in CHO))
2 | binds | MCM-BP (endogenous, CHO cells) (Chinese hamster (endogenous in CHO))
